# According to PubChem BioAssay AID504834 (National Center for Advancing Translational Sciences (NCATS), 2011):
# Screen size: about 320,000 compounds; about 22,000 (6.9%) were called active. Inconclusive results, whose numbers are uncertain, are shown with a selection of clear calls. Calls come from the whole dose curve; as a rule, active = well fitted inhibition curve with a large enough effect; inconclusive = small, poorly fitted or top-dose-only effect, or another doubt; inactive = no such curve, though single readings can be large or run the other way. Where the call is inconclusive, the potency comes from a doubtful curve fit.
# Assay: Primary qHTS for delayed death inhibitors of the malarial parasite plastid, 96 hour incubation
# Settings: P. falciparum luciferase reporter growth; series mostly up to 28.7 µM; activity change, negative = inhibition: at the top concentration
# Procedure, shortened: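 Cell-based qHTS: luciferase-tagged P. falciparum in erythrocytes (2% hematocrit, 0.05% parasitemia final) incubated with compounds for 96 hours, 37 C, 5% CO2; luciferase detection reagent then added and luminescence measured.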
# % is set by controls: 0 for no effect and ±100 for the full control effect; potency is the fitted concentration of half-maximal effect.
Compound,"activity change, negative = inhibition",Potency
O=C(CSc1ncccn1)c1ccccc1Br,inactive: 20.1%,
Cn1nc(Oc2nc(N3CCOCC3)nc(N3CCOCC3)n2)ccc1=O,,"inconclusive: 18.5 µM [inhibitor, single point]"
O=C(NNC(=O)c1ccc(F)cc1F)c1ccc2c(c1)OCO2,inactive: 200%,
COc1ccc(S(=O)(=O)N2CCOC2CNC(=O)C(=O)NCCN2CCOCC2)cc1 (stereo unspecified),inactive: 17.9%,
CCOc1ccc(S(=O)(=O)n2nc(C)cc2C)c2ccccc12,,"inconclusive: 3.29 µM [inhibitor, single point]"
COc1cc(OC)cc(OC(=O)c2ccc3c(=O)n4c(nc3c2)CCC4)c1,inactive: 18.9%,
CCSC1=N/C(=C\c2ccccc2)C(=O)N1c1ccc(OC)cc1,,"inconclusive: 18.5 µM [inhibitor, single point]"
CC1CCN(C(=O)c2cc(-c3ccc(Cl)c(Cl)c3)on2)CC1,,"inconclusive: 4.65 µM [inhibitor, partial curve]"
CC1CC(C)CN(C(=O)C(Cc2ccccc2)n2cccc2)C1 (stereo unspecified),,"inconclusive: 13.1 µM [inhibitor, single point]"
O=C(CSc1nc2ccccc2c(=O)n1-c1ccccc1)N1CCc2ccccc21,,"inconclusive: 10.4 µM [inhibitor, single point]"
CSc1ccc(CN2C(=O)NC3(CCCCCC3)C2=O)cc1,,"inconclusive: 18.5 µM [inhibitor, single point]"
Cc1ccc(S(=O)(=O)N(C)c2nc3ccccc3[nH]c2=S)cc1,inactive: 1.27%,
O=C(NC1CCCC1)C(c1ccncc1)N(C(=O)Cn1nnc(-c2ccccc2F)n1)c1cccc(F)c1 (stereo unspecified),inactive: 13.6%,
CC(=O)Nc1nonc1-c1nc2ccccc2n1C,,"inconclusive: 18.5 µM [inhibitor, single point]"
CCCc1cc(=O)oc2cc(C)c3c(C)coc3c12,inactive: -11.3%,
C=CCSc1nnc(-c2cc3c(-c4ccccc4)nn(C)c3s2)n1C,,"inconclusive: 18.5 µM [inhibitor, single point]"
O=C(N/C(=C\c1ccccc1)C(=O)N1CCOCC1)c1cccc(Br)c1,,active: 7.38 µM
CC1(C)CC(CC(=O)Nc2nccs2)(c2ccccc2)CCO1 (stereo unspecified),inactive: 45.6%,
Cc1ccc2oc3nc(C)c(C(=O)Nc4cccc(C(F)(F)F)c4)cc3c(=O)c2c1,inactive: 38.1%,
CCCCn1c(SCC2CCCO2)nc2cc(S(N)(=O)=O)ccc21 (stereo unspecified),,"inconclusive: 18.5 µM [inhibitor, single point]"
O=C(Cn1cc2c(n1)CCCCC2)Nc1ccccc1Br,,"inconclusive: 1.65 µM [inhibitor, full curve, poor fit]"
O=C(NCCNC1CCN(Cc2ccccc2)CC1)c1cccs1,,"inconclusive: 18.5 µM [inhibitor, single point]"
CCOC(=O)c1c(C)[nH]c(C)c1S(=O)(=O)NCCN1CCN(c2ccccc2F)CC1,inactive: 0%,

# In the list so far, two have a thiophene ring, fused or not.
Compound,"activity change, negative = inhibition",Potency
C=CCSc1nnc(-c2cc3c(-c4ccccc4)nn(C)c3s2)n1C,,"inconclusive: 18.5 µM [inhibitor, single point]"
O=C(NCCNC1CCN(Cc2ccccc2)CC1)c1cccs1,,"inconclusive: 18.5 µM [inhibitor, single point]"

# Remaining list, next part:

Compound,"activity change, negative = inhibition",Potency
Cc1cc(C)c(OCC(=O)OCC(=O)NC2CCC(C)CC2)c(C)c1 (stereo unspecified),inactive: 31.7%,
O=C(CCN=C1NS(=O)(=O)c2ccccc21)OCc1ccccc1,inactive: -4.61%,
COc1ccc(N(CC(=O)NCCSCc2ccc(C)cc2)S(=O)(=O)c2ccccc2)cc1,,"inconclusive: 18.5 µM [inhibitor, single point]"
COc1ccccc1OCCNCC(O)COc1cccc2[nH]c3ccccc3c12 (stereo unspecified),,"inconclusive: 19 µM [inhibitor, single point]"
CN(CC(=O)NCC1CCCCC1)CC(=O)Nc1ccccc1Br,,"inconclusive: 5.22 µM [inhibitor, partial curve, poor fit]"
COc1ccc(CCn2c(=N)c(C(=O)NCc3ccco3)cc3c(=O)n4ccccc4nc32)cc1,,"inconclusive: 3.29 µM [inhibitor, full curve]"
Cc1nnc(SCC(=O)NC2CCCCC2C)s1 (stereo unspecified),,"inconclusive: 1.31 µM [inhibitor, full curve]"
O=C(NNC(=O)c1csc(N2CCOCC2)n1)c1ccc(=O)[nH]c1,inactive: -20.1%,
O=C(NCCN1CCOCC1)c1ccc2c(c1)N(Cc1ccc(Cl)cc1)C(=O)CS2,,"inconclusive: 13.1 µM [inhibitor, single point]"
CCC(=O)N(c1nnc(SCC(=O)Nc2ccc(N3CCOCC3)cc2)s1)C1CC1,inactive: -17.3%,
COc1cc(NC(=S)NC(=O)c2cc(C)cc(C)c2)ccc1NC(=O)c1cccs1,,active: 2.94 µM
O=C(CC(O)(C(F)(F)F)C(F)(F)F)Nc1ccc(Cl)c(Cl)c1,,"inconclusive: 18.5 µM [inhibitor, single point]"
COc1cc2c(cc1OC)C(C)N(C(=O)c1cc3ccccc3o1)CC2 (stereo unspecified),,"inconclusive: 0.131 µM [inhibitor, full curve, poor fit]"
CN(C)c1ccc(-c2nc3cnccn3c2Nc2ccc3c(c2)OCCO3)cc1,,"inconclusive: 18.5 µM [inhibitor, single point]"
O=C(Nc1ccc(N2CCOCC2)cc1)c1cccc(S(=O)(=O)N2CCCCCC2)c1,inactive: -5.61%,
Cn1c(=NC(=O)c2ccc(S(=O)(=O)N3CCCc4ccccc43)cc2)sc2cc(S(C)(=O)=O)ccc21,,"inconclusive: 1.31 µM [inhibitor, full curve, poor fit]"
COc1ccc(OC)c(C(=O)NC(CC(N)=O)c2ccc(NCc3ccc(F)c(F)c3)c([N+](=O)[O-])c2)c1 (stereo unspecified),,"inconclusive: 8.28 µM [inhibitor, partial curve, poor fit]"
CCCOC(=O)c1c(-c2ccccc2)nc(CC)c(C(=O)SCC)c1CCC,inactive: 4.71%,
CSc1ccccc1NC(=O)COC(=O)CCCOc1ccc(C)cc1,inactive: 21.6%,
COc1ccc2nc(C)cc(N/N=C/c3ccc(F)cc3)c2c1,inactive: 12.2%,
CC(NC(=O)C1(S(=O)(=O)c2ccc(Cl)cc2)CC1)c1ccccc1 (stereo unspecified),,"inconclusive: 2.62 µM [inhibitor, single point]"
CCN(CC(=O)Nc1c(F)cccc1F)C(=O)c1ccc(S(=O)(=O)N2CCCC2)cc1,,"inconclusive: 18.5 µM [inhibitor, partial curve, poor fit]"
Cc1nn(Cc2ccc(Cl)cc2)c(C)c1NC(=O)CSc1nc2c(c(C(F)(F)F)n1)CCc1ccccc1-2,,active: 4.65 µM
